Measured values published in PubChem BioAssay AID248 (DTP/NCI, 2004).
The list is a part of this screen's results and no random one: it is rich in T/C values a quarter to a half above the control, in often repeated tests (any T/C) and in doses without a T/C. Other doses and runs of a compound stand elsewhere. T/C is the treated group as % of the vehicle group. Some entries give survivors of the animals treated and no T/C: the source files T/C as zero there, which appears to mark a toxic dose or a test without result, not a measured value. Some survivor counts are full or nearly so, which does not show that the dose was tolerated: survival well below the control is almost never listed, so the zero probably covers shortened survival too. Counts of survivors are from the toxicity check (mostly the fifth day) where no day follows; animals may have died later. Schedule codes are those of the source, taken here to give the interval after Q, in days (D) or hours (H), and the number of doses after X. Some entries hold several experiments; the values are given in rising order. Some schedule codes hold Z or #, which are not explained here. Some structures stand for samples that the source files as different forms (salt, stereo form or complex); doses refer to the form tested. Where survival is the endpoint, this PubChem deposit counts one and a half times the control or more as active, and values a quarter to a half above the control carry no call in these data; other NCI protocols may use other cut-offs. Some T/C values are followed by the survivors on the day toxicity was checked, most often the fifth; without a count, all were alive then.

Tested on: L1210 leukemia ip in BDF1 mice, survival T/C
Assay: NCI In Vivo Anticancer Drug Screen. Data for tumor model L1210 Leukemia (intraperitoneal) in B6D2F1 (BDF1) mice
Details: T/C endpoint: mean survival time, higher T/C = longer survival
[1] = dose: 200.0 mg/kg/injection, schedule: Q01DX009 (ip), vehicle: saline
[2] = dose: 400.0 mg/kg/injection, schedule: Q01DX009 (ip), vehicle: saline with Tween-80
[3] = dose: 100.0 mg/kg/injection, schedule: Q04DX003 (ip), vehicle: saline
[4] = dose: 200.0 mg/kg/injection, schedule: Q04DX003 (ip), vehicle: saline
[5] = dose: 400.0 mg/kg/injection, schedule: Q04DX003 (ip), vehicle: saline
[6] = dose: 100.0 mg/kg/injection, schedule: Q01DX009 (ip), vehicle: saline
[7] = dose: 400.0 mg/kg/injection, schedule: Q01DX009 (ip), vehicle: Klucel (hydroxypropylcellulose) (HPC)
[8] = dose: 400.0 mg/kg/injection, schedule: Q01DX001 (ip), vehicle: saline
[9] = dose: 400.0 mg/kg/injection, schedule: Q04DX003 (ip), vehicle: Klucel (hydroxypropylcellulose) (HPC)
[10] = dose: 200.0 mg/kg/injection, schedule: Q04DX003 (ip), vehicle: Klucel (hydroxypropylcellulose) (HPC)

Which T/C (dose: 1.0 mg/kg/injection, schedule: Q01DX Z (ip), vehicle: methylcellulose (MC)) does the source give for `CC(=O)Nc1ccc2nc3ccc(NC(C)=O)cc3[n+](-c3ccccc3)c2c1` here?
The T/C was 135 % of control.

What about the T/C (dose: 2.0 mg/kg/injection, schedule: Q01DX Z (ip), vehicle: methylcellulose (MC)) of the same compound?
The T/C was 138 % of control.

What about the T/C (dose: 3.1 mg/kg/injection, schedule: Q01DX Z (ip), vehicle: methylcellulose (MC)) of the same compound?
The T/C was 129 % of control.

What about the T/C (dose: 6.25 mg/kg/injection, schedule: Q01DX Z (ip), vehicle: methylcellulose (MC)) of the same compound?
Its T/C is 131 % of control.

And the T/C (dose: 10.0 mg/kg/injection, schedule: Q01DX Z (ip), vehicle: saline)?
The T/C was 126 % of control.

And the T/C (dose: 10.0 mg/kg/injection, schedule: Q#A X Z (ip), vehicle: saline)?
Its T/C is 129 % of control.

What about the T/C (dose: 12.0 mg/kg/injection, schedule: Q01DX009 (ip), vehicle: saline) of the same compound?
The T/C was 141 % of control.

What about the T/C (dose: 17.5 mg/kg/injection, schedule: Q07DX Z (ip), vehicle: saline) of the same compound?
Its T/C is 132 % of control.

And the T/C (dose: 25.0 mg/kg/injection, schedule: Q01DX009 (ip), vehicle: saline)?
The T/C was 147 % of control.

What about the T/C (dose: 30.0 mg/kg/injection, schedule: Q03DX Z (ip), vehicle: saline) of the same compound?
The T/C was 134 % of control.

And the T/C (dose: 31.25 mg/kg/injection, schedule: Q01DX009 (ip), vehicle: saline)?
The T/C was 141 % of control.

What about the T/C (dose: 31.3 mg/kg/injection, schedule: Q01DX009 (ip), vehicle: saline) of the same compound?
Its T/C is 141 % of control.

What about the T/C (dose: 35.0 mg/kg/injection, schedule: Q07DX Z (ip), vehicle: saline) of the same compound?
The T/C was 136 % of control.

What about the T/C (dose: 60.0 mg/kg/injection, schedule: Q03DX Z (ip), vehicle: saline) of the same compound?
The T/C was 134 and 148 % of control.

And the T/C (dose: 62.5 mg/kg/injection, schedule: Q01DX009 (ip), vehicle: saline)?
The T/C was 142, 162, 163, 198 % of control.

And the T/C (dose: 70.0 mg/kg/injection, schedule: Q07DX Z (ip), vehicle: saline)?
The T/C was 129 % of control.

What about the T/C (dose: 120.0 mg/kg/injection, schedule: Q03DX Z (ip), vehicle: saline) of the same compound?
The T/C was 145 % of control.

And the T/C (dose: 125.0 mg/kg/injection, schedule: Q01DX009 (ip), vehicle: saline)?
Its T/C is 192, 203, 214, 256 % of control.

What about the T/C (dose: 140.0 mg/kg/injection, schedule: Q07DX Z (ip), vehicle: saline) of the same compound?
The T/C was 136 % of control.

And the T/C (dose: 177.0 mg/kg/injection, schedule: Q01DX001 (ip), vehicle: saline)?
The T/C was 148 % of control.

What about the T/C (dose: 240.0 mg/kg/injection, schedule: Q03DX Z (ip), vehicle: saline) of the same compound?
Its T/C is 141 % of control.

And the T/C (dose: 250.0 mg/kg/injection, schedule: Q01DX009 (ip), vehicle: saline)?
Its T/C is 110, 130, 140 [5 of 6 alive], 156 % of control [4 of 6 alive].

What about the T/C (dose: 266.0 mg/kg/injection, schedule: Q01DX001 (ip), vehicle: saline) of the same compound?
The T/C was 128 % of control.

And the T/C (dose: 280.0 mg/kg/injection, schedule: Q07DX Z (ip), vehicle: saline)?
The T/C was 147 % of control.

What about the T/C (dose: 400.0 mg/kg/injection, schedule: Q01DX001 (ip), vehicle: saline, evaluated on day 30) of the same compound?
The T/C was 133 % of control.

And the T/C (dose: 400.0 mg/kg/injection, schedule: Q01DX001 (ip), vehicle: saline, run until all animals had died)?
Its T/C is 129 % of control.

And the T/C (dose: 500.0 mg/kg/injection, schedule: Q01DX Z (oral), vehicle: saline)?
Its T/C is 133 % of control.

And the T/C (dose: 600.0 mg/kg/injection, schedule: Q01DX001 (ip), vehicle: saline, evaluated on day 30)?
The T/C was 126 % of control.

What about the T/C (dose: 600.0 mg/kg/injection, schedule: Q01DX001 (ip), vehicle: saline, run until all animals had died) of the same compound?
The T/C was 145 % of control.

And the T/C (dose: 1125.0 mg/kg/injection, schedule: Q01DX Z (oral), vehicle: saline)?
Its T/C is 127 % of control.

`C/C(=N/N(C)C)c1ccc(F)cc1` was tested. Which survivor count [1] did it give?
The survivor count was 3 of 6.

`CCCCCCCCCCCC(=O)NC(=S)Nc1ccc(C)c(C)c1` was tested. Which survivor count (dose: 200.0 mg/kg/injection, schedule: Q01DX001 (ip), vehicle: saline with Tween-80) did it give?
Its survivor count is 6 of 6.

What about the survivor count [2] of the same compound?
The survivor count was 5 of 6 and 3 of 3.

How did the survivor count (dose: 0.19 mg/kg/injection, schedule: Q01DX009 (ip), vehicle: saline) turn out when `CC(CN1CCN(CCOCCO)CC1)CN1c2ccccc2Sc2ccc(Cl)cc21` (configuration not stated) was run?
The survivor count was 6 of 6.

And the survivor count (dose: 25.0 mg/kg/injection, schedule: Q04DX003 (ip), vehicle: saline)?
Its survivor count is 2 of 4.

And the survivor count (dose: 50.0 mg/kg/injection, schedule: Q04DX003 (ip), vehicle: saline)?
Its survivor count is 0 of 4.

What about the survivor count [3] of the same compound?
The survivor count was 0 of 4.

And the survivor count [4]?
The survivor count was 0 of 4.

What about the survivor count [5] of the same compound?
Its survivor count is 0 of 4.

With `CCN(CC)CC(=O)NCC(CCN1CCCCC1)(Cc1cccc2ccccc12)C(C)C` (configuration not stated) as the compound, how does the survivor count [6] read?
The survivor count was 0 of 6.

What about the survivor count [1] of the same compound?
Its survivor count is 0 of 6.

What about the survivor count (dose: 400.0 mg/kg/injection, schedule: Q01DX009 (ip), vehicle: saline) of the same compound?
The survivor count was 0 of 6.

How did the survivor count (dose: 200.0 mg/kg/injection, schedule: Q04DX002 (ip), vehicle: Klucel (hydroxypropylcellulose) (HPC)) turn out when `NC(=O)N1C(=O)C=CC1=O` was run?
Its survivor count is 1 of 3.

And the survivor count [7]?
The survivor count was 2 of 6.

Which survivor count (dose: 400.0 mg/kg/injection, schedule: Q04DX002 (ip), vehicle: saline with Tween-80) does the source give for `Cc1cccc(Cl)c1OCC(=O)Nc1ccccc1` here?
Its survivor count is 1 of 3.

`CCc1nccc(=O)[nH]1` was tested. Which survivor count [5] did it give?
The survivor count was 0 of 6 and 1 of 6.

`Cc1cnc2ccccc2c1` was tested. Which survivor count [8] did it give?
The survivor count was 0 of 4.

How did the survivor count [2] turn out when `Cc1ccc(C)c(N=Nc2ccc(O)cc2)c1` was run?
Its survivor count is 4 of 6.

What does the source list for `Cc1ccc2no[n+]([O-])c2c1`?
survivor count (dose: 80.0 mg/kg/injection, schedule: Q01DX009 (ip), vehicle: Klucel (hydroxypropylcellulose) (HPC)): 2 of 6; survivor count (dose: 100.0 mg/kg/injection, schedule: Q01DX009 (ip), vehicle: Klucel (hydroxypropylcellulose) (HPC)): 3 of 6; survivor count (dose: 200.0 mg/kg/injection, schedule: Q01DX009 (ip), vehicle: Klucel (hydroxypropylcellulose) (HPC)): 0 of 6; survivor count [7]: 0 of 6

How did the survivor count [9] turn out when `O=C1c2ccccc2C(=O)c2c(Nc3ccccc3)ccc(O)c21` was run?
Its survivor count is 6 of 6.

With `O=P(OCc1ccccc1)(N(CCCl)CCCl)N1CCN(Cc2ccccc2)CC1` (configuration not stated) as the compound, how does the survivor count (dose: 300.0 mg/kg/injection, schedule: Q01DX Z (ip), vehicle: saline) read?
Its survivor count is 1 of 6.

`O=C(O)C1C(C(=O)O)C2(Cl)C(Cl)=C(Cl)C1(Cl)C2(Cl)Cl.[Fe]` (configuration not stated) was tested. Which survivor count (dose: 100.0 mg/kg/injection, schedule: Q01DX Z (ip), vehicle: carboxymethylcellulose (CMC)) did it give?
Its survivor count is 6 of 6.

And the survivor count [3]?
The survivor count was 6 of 6.

And the survivor count (dose: 150.0 mg/kg/injection, schedule: Q01DX Z (ip), vehicle: carboxymethylcellulose (CMC))?
Its survivor count is 6 of 6.

And the survivor count [4]?
Its survivor count is 6 of 6.

How did the survivor count [10] turn out when `O=C(CCl)NC1=C(N2CC2)C(=O)c2ccccc2C1=O` was run?
Its survivor count is 6 of 6.

For `CN(C)C/C(=N\O)c1ccc(Cl)cc1`, which survivor count [8] is on record?
The survivor count was 0 of 6.

How did the survivor count (dose: 100.0 mg/kg/injection, schedule: Q01DX001 (ip), vehicle: carboxymethylcellulose (CMC)) turn out when `CN(C)c1ccc(/C=N/Nc2nnc(N/N=C/c3ccc(N(C)C)cc3)c3ccccc23)cc1` was run?
The survivor count was 2 of 4.

With `Cc1cc(N(CCCCl)CCCCl)ccc1C=Nc1cc(Cl)c(O)c(Cl)c1` as the compound, how does the survivor count (dose: 100.0 mg/kg/injection, schedule: Q04DX003 (ip), vehicle: Klucel (hydroxypropylcellulose) (HPC)) read?
The survivor count was 6 of 6.

And the survivor count [10]?
Its survivor count is 6 of 6.

And the survivor count [9]?
Its survivor count is 6 of 6.

What does the source list for `OCc1cccc2c1CCC2`?
survivor count (dose: 100.0 mg/kg/injection, schedule: Q01DX001 (ip), vehicle: Klucel (hydroxypropylcellulose) (HPC)): 3 of 6; survivor count (dose: 200.0 mg/kg/injection, schedule: Q01DX001 (ip), vehicle: Klucel (hydroxypropylcellulose) (HPC)): 1 of 6; survivor count (dose: 400.0 mg/kg/injection, schedule: Q01DX001 (ip), vehicle: Klucel (hydroxypropylcellulose) (HPC)): 0 of 6

For `CCOC(=O)C(=N\Nc1ccc(C)c(C)c1)/C(C)=N\NC(N)=S`, which survivor count (dose: 300.0 mg/kg/injection, schedule: Q01DX001 (ip), vehicle: saline) is on record?
The survivor count was 0 of 6.

`CC(C)N1CN(C(C)C)CN(C(C)C)C1` was tested. Which survivor count [6] did it give?
Its survivor count is 3 of 6.

And the survivor count [3]?
The survivor count was 6 of 6.

And the survivor count [4]?
Its survivor count is 0 of 6.

And the survivor count [5]?
Its survivor count is 0 of 6.
